Percent effect of library compounds

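Phenotypic screen: M. tuberculosis growth, glucose 7H9 medium, 3 days; the read-out is not stated. Concentration: 500 µM. Higher reads as more growth inhibition (inferred: compounds with an IC50 in retests scored well above the rest). Of about 18,000 compounds tested this way, about 1,400 (7.9%) reached 50% or more in at least one test.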

Each number is a percent effect as filed. The record does not define 0% and 100%; most values in the screen are far below 50% and negative numbers occur (in some assays of this library far below -100). Compounds were drawn at random from those tested, without regard to their results.

compound | percent effect
COc1ncccc1C(=O)NCCN1CCCC(C)C1 (stereo not drawn) | 12.43%
CC1CCCCN1C(=O)CN1CCNCC1 (stereo not drawn) | -5.114%
CC(C)c1ccc(C(N)CNS(C)(=O)=O)cc1 (stereo not drawn) | 74.94%
OCCCNC1CC1 | 9.549%
CN1CCC(NC(=O)C2CC2)CC1 | -2.734%
NCC(CO)Cc1ccsc1 (stereo not drawn) | 70.71%
CC(C)NC(=O)NCCN(C)C1CCCC1 | -1.647%
CC1C(=O)NCCN1CC(=O)N1CCCCC1 (stereo not drawn) | -5.656%
Cc1nc(C(=O)NCC2CN(S(C)(=O)=O)CCO2)cs1 (stereo not drawn) | 22.23%
CCN1CC(C(=O)Nc2cn(C)cc(Br)c2=O)CC1=O (stereo not drawn) | 5.563%
NCC1CCCC(=O)N1 (stereo not drawn) | 5.824%
Cc1ccoc1C(=O)NCc1ccnc(N(C)C)c1 | 25.38%
CCC(CC)C(=O)NC1CCN(C)CC1 | 3.96%
CSc1ncc(CNCC2(O)CCCNC2)n1C (stereo not drawn) | 7.194%
C[C@H](NC(=O)CSCc1ccccc1Cl)C(N)=O | 18.76%
Cc1csc(CNC(=O)c2cc[nH]n2)n1 | 1.911%
Cn1cc(C2CSCCN2Cc2ccon2)cn1 (stereo not drawn) | 8.699%
CCC(C)CN1CCN(CCS(C)(=O)=O)CC1 (stereo not drawn) | 0.1684%
Cc1ocnc1C(=O)N1CC(=O)Nc2ccc(Br)cc21 | -3.569%
CC[C@H](CO)NCc1ccccc1 | -4.665%
COCCN(C)C[C@@H]1CN(C(=O)CO)C[C@@H]1CO | 9.686%
Cc1ccccc1CS(=O)(=O)NCCCN | 5.331%
O=C(c1ccc[nH]1)N1CCCN(Cc2cscn2)CC1 | 19.39%
Cc1cccc(NC(=O)NCCCn2cccn2)n1 | 30.39%
Clc1cccnc1N1CCC(Nc2cccnc2)CC1 | 17.32%
CN1CCN(c2ccccc2C#N)CC1 | 13.66%
NC(=O)Cn1cc(N)cn1 | 17.42%
O=C(CCN1CCC(C(F)(F)F)CC1)N1CCOCC1 | -4.549%
OCCN(CCN1CCOCC1)CC1CCOC1 (stereo not drawn) | 3.898%
CC(C)(C)CC(=O)N1CCCCC1CN (stereo not drawn) | -0.4258%
CN1CCOC[C@H]2CCN(C(=O)c3cccs3)C[C@H]21 | 14.76%
COc1ccc(CN)cc1OC(F)F | 41.01%
CC(=O)c1c(C)cccc1NC(=O)CN1CCCC1=O | 11.75%
Cc1ccc(N)nn1 | 4.675%
Clc1cccnc1N1CCNCC1 | 1.317%
CC1CN(C)CCN1C(=O)c1cc(-c2ccco2)[nH]n1 (stereo not drawn) | -19.81%
CCOc1ccc(Cn2cc(Br)ccc2=O)nc1 | 32.72%
CS(=O)(=O)CC1(CNc2ccc(C#N)cn2)CC1 | 7.256%
CCc1nccn1CCNC(=O)Cn1nc(C)cc1N | -4.122%
CN1CCC(N(C)C(=O)Cc2ccc(F)cc2)CC1 | -9.591%
OCCc1ccnc2ccccc12 | 6.593%
COC(=O)C(C)N(Cc1ccc(C(N)=O)cc1)C1CC1 (stereo not drawn) | 4.34%
CCC1CN(C2=NS(=O)(=O)c3ccccc32)CCO1 (stereo not drawn) | 1.519%
CN(C)C(=O)NCCc1ccc(F)cc1 | 5.461%
COC[C@@H]1CCCN1C(=O)Nc1ccc(C(C)=O)cc1 | 31.3%
CCCN1CCC(NS(=O)(=O)N(CC)CC)CC1 | 10.08%
O=c1c(Br)cncn1CC(F)(F)F | -1.436%
NC(=O)CCn1ccnc1C(=O)c1ccccc1 | 12.02%
CN(C)S(=O)(=O)CCCN1CCCC1c1ccco1 (stereo not drawn) | -1.166%
NCc1cccnc1N | 8.177%
COc1ccccc1C(C)(C)N | 2.394%
Cc1cccnc1NC(=O)C(C)NC(=O)c1ccoc1 (stereo not drawn) | 2.161%
CN(CC(N)=O)Cc1cncn1C1CCCCC1 | 7.473%
Cc1ccc2ncc(CCN)cc2c1 | 47.55%
COc1ccc(-c2csc(CC(N)=O)n2)cc1 | 35.3%
CC(N)CN1CCOC1=O (stereo not drawn) | -13.58%
CNC(=O)Cc1noc(-c2occc2C)n1 | -2.261%
CCOC(=O)C(C)Cn1cc(Br)cn1 (stereo not drawn) | 10.69%
CC(C)(C(=O)N1CC[C@@H](O)C1)c1ccccc1 | -1.006%
CN(C)c1cc2c(nn1)CCNC2 | 5.924%
Cc1ccccc1C1CNC(=O)C1 (stereo not drawn) | 6.564%
NC1(c2ccccc2)CCNC1 (stereo not drawn) | -3.976%
CN1CCOC[C@H]2CCN(C(=O)c3ccco3)C[C@H]21 | 13.59%
CCCNC(=O)NC1CCN(CC)CC1 | 14.35%
Cc1nnc(CN2CCCC2c2ccccn2)s1 (stereo not drawn) | 20.76%
CC(C(=O)N1CCOCC1)S(=O)(=O)c1ccccn1 (stereo not drawn) | 7.316%
CC(C)(C)CC1CCCN1S(N)(=O)=O (stereo not drawn) | 25.37%
OCC1(NCc2ccc(Br)o2)CCOC1 (stereo not drawn) | 1.142%
O=C(CC(F)(F)F)NCc1ccc(F)cc1 | -18.92%
CSCC(=O)N1CCN(S(=O)(=O)N2CCOCC2)CC1 | 5.446%
COc1ccc(C(=O)N2CCCNCC2)cc1 | 25.96%
CSCC(=O)NC1CCc2nccn2C1 (stereo not drawn) | -9.795%
CC1(C)CN(C(=O)c2ncncc2Cl)CC[S+]1[O-] (stereo not drawn) | -11.07%

From ChEMBL document CHEMBL3988442, “University of Dundee, Small-Polar-MMV Screening Library” (2021).